Results from the supplement of paper PMC4604168 (melanoma cell lines).
Some of the results follow. Many values rest on one well or one pass, so single values are uncertain.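 Cells were imaged in 1,536-well plates, and nuclei stained with an antibody against cleaved PARP were counted against all DNA-stained nuclei to give the apoptosis fraction. Screening doses were chosen to leave most cells alive, and resting and induced cleaved-PARP levels differ strongly between cell lines.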

How the values were obtained:
Test in all cases: cleaved PARP positive nuclei fraction relative to DMSO control; melanoma cells; higher = more apoptosis
Conditions in all cases: library dose: low library concentration; 72 h
MZ2-MEL = tested on: MZ2-MEL
MeWo = tested on: MeWo
RPMI7951 = tested on: RPMI7951
RVH-421 = tested on: RVH-421
SkMel28 = tested on: SkMel28
SkMel2 = tested on: SkMel2
SkMel30 = tested on: SkMel30
SkMel5 = tested on: SkMel5
UACC257 = tested on: UACC257
UACC62 = tested on: UACC62

Compound | cleaved PARP positive nuclei fraction (MZ2-MEL) | cleaved PARP positive nuclei fraction (MeWo) | cleaved PARP positive nuclei fraction (RPMI7951) | cleaved PARP positive nuclei fraction (RVH-421) | cleaved PARP positive nuclei fraction (SkMel28) | cleaved PARP positive nuclei fraction (SkMel2) | cleaved PARP positive nuclei fraction (SkMel30) | cleaved PARP positive nuclei fraction (SkMel5) | cleaved PARP positive nuclei fraction (UACC257) | cleaved PARP positive nuclei fraction (UACC62)
COc1ccc(C2=N[C@@H](c3ccc(Cl)cc3)[C@@H](c3ccc(Cl)cc3)N2C(=O)N2CCNC(=O)C2)c(OC(C)C)c1 [Nutlin-3] + O=C(O)C(=O)Nc1sc2c(c1C(=O)O)CCNC2 [TCS401] (first compound 0.1 µM, partner dose 1.66667 µM) | 97.5% | 91.7% | 129% | 170% | 125% | 111% | 146% | 185% | 22.1% | 269%
Cn1sc(=O)n(Cc2ccccc2)c1=O + Cc1ccc(NC(=O)c2cccc(N(C)C)c2)cc1NC(=O)c1ccc(O)cc1 [ZM336372] (first compound 0.4 µM, partner dose 2 µM) | 135% | 60.6% | 124% | 133% | 59.5% | 102% | 176% | 111% | 181% | 145%
Cn1sc(=O)n(Cc2ccccc2)c1=O + COc1cc2ncnc(Nc3ccc(Oc4ccccc4)cc3)c2cc1OC [SrcI1] (first compound 0.4 µM, partner dose 2 µM) | 91.3% | 122% | 107% | 32.3% | 106% | 99.5% | 76.1% | 145% | 51.4% | 377%
CS(=O)(=O)c1ccc(C(=O)Nc2ccc(Cl)c(-c3ccccn3)c2)c(Cl)c1 [vismodegib] + c1cc(-c2cnn3cc(-c4ccc(OCCN5CCCCC5)cc4)cnc23)ccn1 [Dorsomorphin] (first compound 1 µM, partner dose 0.4 µM) | 66% | 135% | 69.8% | 25.1% | 151% | 102% | 27.9% | 96.2% | 112% | 65.7%
CC(=O)O[C@@]12CO[C@@H]1C[C@H](O)[C@@]1(C)C(=O)[C@H](O)C3=C(C)[C@@H](OC(=O)[C@H](O)[C@@H](NC(=O)OC(C)(C)C)c4ccccc4)C[C@@](O)([C@@H](OC(=O)c4ccccc4)[C@H]21)C3(C)C [Docetaxel] + COc1cc2c(Oc3ccc4[nH]c(C)cc4c3F)ncnc2cc1OCCCN1CCCC1 [cediranib] (first compound 0.0001 µM, partner dose 0.4 µM) | 860% | 324% | 174% | 68.1% | 195% | 522% | 188% | 160% | 421% | 590%
CC1(C)CCC(c2ccc(Cl)cc2)=C(CN2CCN(c3ccc(C(=O)NS(=O)(=O)c4ccc(N[C@H](CCN5CCOCC5)CSc5ccccc5)c(S(=O)(=O)C(F)(F)F)c4)cc3)CC2)C1 + O=c1cc(-c2cccc3c2Sc2ccccc2S3)oc(N2CCOCC2)c1 [KU55933] (first compound 0.4 µM, partner dose 1 µM) | 216% | 231% | 145% | 95.1% | 193% | 235% | 646% | 588% | 81.5% | 84.3%
CS(=O)(=O)c1ccc(C(=O)Nc2ccc(Cl)c(-c3ccccn3)c2)c(Cl)c1 [vismodegib] + CC(C)C[C@H](NC(=O)[C@H](Cc1ccccc1)NC(=O)c1cnccn1)B(O)O [Bortezomib] (first compound 1 µM, partner dose 0.001 µM) | 85.8% | 89.7% | 66.1% | 203% | 41.7% | 86% | 99.2% |  |  | 37.5%
NC(=O)c1ccc(N(C(N)=O)c2c(F)cccc2F)nc1-c1ccc(F)cc1F + CC(=O)c1c(C)c2cnc(Nc3ccc(N4CCNCC4)cn3)nc2n(C2CCCC2)c1=O [palbociclib] (first compound 0.4 µM, partner dose 0.04 µM) | 92.5% | 12.3% | 98.7% | 34.8% | 45.9% | 73.8% | 46.2% |  |  | 123%
Cn1sc(=O)n(Cc2ccccc2)c1=O + Nc1cccc2c1CN(C1CCC(=O)NC1=O)C2=O [lenalidomide] (first compound 0.4 µM, partner dose 1 µM) | 167% | 18.2% | 103% | 128% | 69.2% | 127% | 23.5% |  |  | 117%
CN(c1ncccc1CNc1nc(Nc2ccc3c(c2)CC(=O)N3)ncc1C(F)(F)F)S(C)(=O)=O + CCCS(=O)(=O)Nc1ccc(F)c(C(=O)c2c[nH]c3ncc(Cl)cc23)c1F [PLX4720] (first compound 0.08 µM, partner dose 0.08 µM) | 104% | 129% | 45.3% | 76% | 80.2% | 94.2% | 96.9% |  |  | 124%
CC1(C)CCC(c2ccc(Cl)cc2)=C(CN2CCN(c3ccc(C(=O)NS(=O)(=O)c4ccc(N[C@H](CCN5CCOCC5)CSc5ccccc5)c(S(=O)(=O)C(F)(F)F)c4)cc3)CC2)C1 + COc1ccc(C2=N[C@@H](c3ccc(Cl)cc3)[C@@H](c3ccc(Cl)cc3)N2C(=O)N2CCNC(=O)C2)c(OC(C)C)c1 [Nutlin-3] (first compound 0.4 µM, partner dose 0.1 µM) | 175% | 186% | 255% | 134% | 92.4% | 160% | 130% |  |  | 82.4%
CCCCCCCCc1ccc(CCC(N)(CO)CO)cc1 [fingolimod] + Nc1cccc2c1CN(C1CCC(=O)NC1=O)C2=O [lenalidomide] (first compound 2 µM, partner dose 1 µM) | 146% | 27.8% | 51.3% | 108% | 88.3% | 125% | 70.4% |  |  | 78%
CN(c1ncccc1CNc1nc(Nc2ccc3c(c2)CC(=O)N3)ncc1C(F)(F)F)S(C)(=O)=O + CNC(=O)c1cc(Oc2ccc(NC(=O)Nc3ccc(Cl)c(C(F)(F)F)c3)cc2)ccn1 [sorafenib] (first compound 0.08 µM, partner dose 0.4 µM) | 60.9% | 79.5% | 181% | 69.3% | 102% | 33.4% | 26.9% |  |  | 48.4%
CS(=O)(=O)c1ccc(C(=O)Nc2ccc(Cl)c(-c3ccccn3)c2)c(Cl)c1 [vismodegib] + CC(=O)c1c(C)c2cnc(Nc3ccc(N4CCNCC4)cn3)nc2n(C2CCCC2)c1=O [palbociclib] (first compound 1 µM, partner dose 0.04 µM) | 69.8% | 104% | 125% | 70.1% | 70.5% | 58.7% | 96.8% |  |  | 66.3%
CC(=O)O[C@@]12CO[C@@H]1C[C@H](O)[C@@]1(C)C(=O)[C@H](O)C3=C(C)[C@@H](OC(=O)[C@H](O)[C@@H](NC(=O)OC(C)(C)C)c4ccccc4)C[C@@](O)([C@@H](OC(=O)c4ccccc4)[C@H]21)C3(C)C [Docetaxel] + Nc1cccc2c1CN(C1CCC(=O)NC1=O)C2=O [lenalidomide] (first compound 0.0001 µM, partner dose 1 µM) | 666% | 469% | 492% | 49.2% | 101% | 835% | 256% |  |  | 688%
C[C@@H](N)c1ccc(C(=O)Nc2ccnc3[nH]ccc23)cc1 + NC1(c2ccc(-c3nc4ccn5c(=O)[nH]nc5c4cc3-c3ccccc3)cc2)CCC1 [MK2206] (first compound 0.4 µM, partner dose 0.4 µM) | 503% | 215% | 104% | 172% | 174% | 130% | 64.2% |  |  | 359%
CCN(CC)CCNC(=O)c1c(C)[nH]c(/C=C2\C(=O)Nc3ccc(F)cc32)c1C [sunitinib] + Nc1nc(F)nc2c1ncn2[C@@H]1O[C@H](CO)[C@@H](O)[C@@H]1O [fludarabine] (first compound 0.4 µM, partner dose 0.2 µM) | 182% | 333% | 222% | 45.4% | 302% | 617% | 2130% |  |  | 85%
NC1(c2ccc(-c3nc4ccn5c(=O)[nH]nc5c4cc3-c3ccccc3)cc2)CCC1 + Cn1c(=O)n(-c2ccc(C(C)(C)C#N)cc2)c2c3cc(-c4cnc5ccccc5c4)ccc3ncc21 [NVP-BEZ235] (first compound 0.4 µM, partner dose 0.004 µM) | 138% | 148% | 130% | 96.8% | 160% | 203% | 122% |  |  | 284%
CC1(C)CCC(c2ccc(Cl)cc2)=C(CN2CCN(c3ccc(C(=O)NS(=O)(=O)c4ccc(N[C@H](CCN5CCOCC5)CSc5ccccc5)c(S(=O)(=O)C(F)(F)F)c4)cc3)CC2)C1 + NC(=O)c1ccc(N(C(N)=O)c2c(F)cccc2F)nc1-c1ccc(F)cc1F [VX702] (first compound 0.4 µM, partner dose 0.4 µM) | 121% | 435% | 146% | 566% | 58.9% | 145% | 140% |  |  | 149%
CS(=O)(=O)c1ccc(C(=O)Nc2ccc(Cl)c(-c3ccccn3)c2)c(Cl)c1 [vismodegib] + C=C(c1ccc(C(=O)O)cc1)c1cc2c(cc1C)C(C)(C)CCC2(C)C [Bexarotene] (first compound 1 µM, partner dose 2 µM) | 31.6% | 56.5% | 76.7% | 134% | 101% | 139% | 121% |  |  | 122%
C[C@@H](N)c1ccc(C(=O)Nc2ccnc3[nH]ccc23)cc1 + C#Cc1cccc(Nc2ncnc3cc(OCCOC)c(OCCOC)cc23)c1 [erlotinib] (first compound 0.4 µM, partner dose 0.8 µM) | 121% | 206% | 324% | 72.3% | 103% | 127% | 124% |  |  | 138%
NC1(c2ccc(-c3nc4ccn5c(=O)[nH]nc5c4cc3-c3ccccc3)cc2)CCC1 + COc1ccc(Cl)c(Nc2nc3ccccc3nc2NS(=O)(=O)c2cccc(NC(=O)C(C)(C)N)c2)c1 [XL147] (first compound 0.4 µM, partner dose 0.8 µM) | 81.4% | 80.7% | 39.2% | 398% | 164% | 43.9% | 90.7% |  |  | 142%
COc1ccc(C2=N[C@@H](c3ccc(Cl)cc3)[C@@H](c3ccc(Cl)cc3)N2C(=O)N2CCNC(=O)C2)c(OC(C)C)c1 [Nutlin-3] + C[C@]1(O)C[C@@H](c2nc(-c3ccc4ccc(-c5ccccc5)nc4c3)c3c(N)nccn32)C1 [OSI906] (first compound 0.1 µM, partner dose 0.4 µM) | 69.5% | 102% | 68.6% | 46.8% | 96.2% | 230% | 58.4% |  |  | 149%
CS(=O)(=O)c1ccc(C(=O)Nc2ccc(Cl)c(-c3ccccn3)c2)c(Cl)c1 [vismodegib] + Cc1cc(Nc2cc(N3CCN(C)CC3)nc(/C=C/c3ccccc3)n2)n[nH]1 [ENMD2076] (first compound 1 µM, partner dose 0.04 µM) | 94.7% | 47.1% | 294% | 333% | 35.7% | 66.3% | 54% |  |  | 256%

In a second layout: entries from further up.
Compound	cleaved PARP positive nuclei fraction (MZ2-MEL)	cleaved PARP positive nuclei fraction (MeWo)	cleaved PARP positive nuclei fraction (RPMI7951)	cleaved PARP positive nuclei fraction (RVH-421)	cleaved PARP positive nuclei fraction (SkMel28)	cleaved PARP positive nuclei fraction (SkMel2)	cleaved PARP positive nuclei fraction (SkMel30)	cleaved PARP positive nuclei fraction (SkMel5)	cleaved PARP positive nuclei fraction (UACC257)	cleaved PARP positive nuclei fraction (UACC62)
NC1(c2ccc(-c3nc4ccn5c(=O)[nH]nc5c4cc3-c3ccccc3)cc2)CCC1 + COc1ccc(Cl)c(Nc2nc3ccccc3nc2NS(=O)(=O)c2cccc(NC(=O)C(C)(C)N)c2)c1 [XL147] (first compound 0.4 µM, partner dose 0.8 µM)	81.4%	80.7%	39.2%	398%	164%	43.9%	90.7%			142%
COc1ccc(C2=N[C@@H](c3ccc(Cl)cc3)[C@@H](c3ccc(Cl)cc3)N2C(=O)N2CCNC(=O)C2)c(OC(C)C)c1 [Nutlin-3] + C[C@]1(O)C[C@@H](c2nc(-c3ccc4ccc(-c5ccccc5)nc4c3)c3c(N)nccn32)C1 [OSI906] (first compound 0.1 µM, partner dose 0.4 µM)	69.5%	102%	68.6%	46.8%	96.2%	230%	58.4%			149%
